The supplement of paper PMC10849652
Some of the results follow.

By UniProt entry, the sequences of proteins in these tests, tags left out. Where a name states a change or a piece, a line headed by the entry shows the natural chain unless it says otherwise.
UniProt Q13825: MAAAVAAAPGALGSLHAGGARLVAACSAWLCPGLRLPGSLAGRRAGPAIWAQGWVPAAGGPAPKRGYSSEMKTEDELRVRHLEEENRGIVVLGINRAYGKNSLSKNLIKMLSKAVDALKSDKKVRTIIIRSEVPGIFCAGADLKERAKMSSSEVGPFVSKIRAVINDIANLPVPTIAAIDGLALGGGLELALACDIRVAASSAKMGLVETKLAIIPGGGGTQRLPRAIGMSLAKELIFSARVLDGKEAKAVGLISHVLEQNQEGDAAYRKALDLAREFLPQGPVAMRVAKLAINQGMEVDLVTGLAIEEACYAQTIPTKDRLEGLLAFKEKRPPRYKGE
UniProt Q6UW56: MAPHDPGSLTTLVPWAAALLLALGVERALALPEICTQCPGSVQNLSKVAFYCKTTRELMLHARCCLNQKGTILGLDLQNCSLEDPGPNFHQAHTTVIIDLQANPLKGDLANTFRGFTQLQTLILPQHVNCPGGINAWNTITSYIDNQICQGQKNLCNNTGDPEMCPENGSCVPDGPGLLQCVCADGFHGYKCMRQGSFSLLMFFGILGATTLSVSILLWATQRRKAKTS
UniProt Q00973: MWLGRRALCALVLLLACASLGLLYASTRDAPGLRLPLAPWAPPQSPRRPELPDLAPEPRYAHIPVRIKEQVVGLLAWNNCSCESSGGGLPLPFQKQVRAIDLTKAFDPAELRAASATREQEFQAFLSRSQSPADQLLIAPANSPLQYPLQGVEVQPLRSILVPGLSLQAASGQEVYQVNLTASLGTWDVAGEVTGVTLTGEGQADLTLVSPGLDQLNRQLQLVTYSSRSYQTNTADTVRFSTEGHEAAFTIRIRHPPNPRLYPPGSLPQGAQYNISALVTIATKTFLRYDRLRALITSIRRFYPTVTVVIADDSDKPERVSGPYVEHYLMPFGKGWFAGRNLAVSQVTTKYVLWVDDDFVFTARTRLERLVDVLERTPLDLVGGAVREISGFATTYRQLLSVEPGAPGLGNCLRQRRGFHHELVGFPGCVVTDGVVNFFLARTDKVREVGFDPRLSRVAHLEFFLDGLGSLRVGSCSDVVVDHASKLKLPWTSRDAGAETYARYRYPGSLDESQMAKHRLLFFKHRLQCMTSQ
UniProt Q9BYG0: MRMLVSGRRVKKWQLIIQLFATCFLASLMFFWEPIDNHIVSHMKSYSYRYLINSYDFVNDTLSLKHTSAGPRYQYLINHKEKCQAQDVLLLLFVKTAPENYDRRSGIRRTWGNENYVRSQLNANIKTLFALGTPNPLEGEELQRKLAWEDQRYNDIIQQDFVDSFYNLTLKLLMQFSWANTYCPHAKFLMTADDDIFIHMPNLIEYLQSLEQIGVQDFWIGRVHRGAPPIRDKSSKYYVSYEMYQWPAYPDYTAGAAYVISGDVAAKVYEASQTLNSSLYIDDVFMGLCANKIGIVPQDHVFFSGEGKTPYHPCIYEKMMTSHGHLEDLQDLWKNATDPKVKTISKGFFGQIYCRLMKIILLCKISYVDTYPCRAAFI
UniProt Q9NQS1: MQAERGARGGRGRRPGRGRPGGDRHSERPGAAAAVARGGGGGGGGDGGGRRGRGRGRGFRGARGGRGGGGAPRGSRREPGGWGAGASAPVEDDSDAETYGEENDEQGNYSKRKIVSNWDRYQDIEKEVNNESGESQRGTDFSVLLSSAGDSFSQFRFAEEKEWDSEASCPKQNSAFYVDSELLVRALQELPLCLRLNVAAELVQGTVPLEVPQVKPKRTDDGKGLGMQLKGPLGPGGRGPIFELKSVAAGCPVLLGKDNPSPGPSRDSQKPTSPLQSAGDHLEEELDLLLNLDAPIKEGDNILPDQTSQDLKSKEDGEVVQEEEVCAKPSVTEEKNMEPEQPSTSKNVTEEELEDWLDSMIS
UniProt P25705: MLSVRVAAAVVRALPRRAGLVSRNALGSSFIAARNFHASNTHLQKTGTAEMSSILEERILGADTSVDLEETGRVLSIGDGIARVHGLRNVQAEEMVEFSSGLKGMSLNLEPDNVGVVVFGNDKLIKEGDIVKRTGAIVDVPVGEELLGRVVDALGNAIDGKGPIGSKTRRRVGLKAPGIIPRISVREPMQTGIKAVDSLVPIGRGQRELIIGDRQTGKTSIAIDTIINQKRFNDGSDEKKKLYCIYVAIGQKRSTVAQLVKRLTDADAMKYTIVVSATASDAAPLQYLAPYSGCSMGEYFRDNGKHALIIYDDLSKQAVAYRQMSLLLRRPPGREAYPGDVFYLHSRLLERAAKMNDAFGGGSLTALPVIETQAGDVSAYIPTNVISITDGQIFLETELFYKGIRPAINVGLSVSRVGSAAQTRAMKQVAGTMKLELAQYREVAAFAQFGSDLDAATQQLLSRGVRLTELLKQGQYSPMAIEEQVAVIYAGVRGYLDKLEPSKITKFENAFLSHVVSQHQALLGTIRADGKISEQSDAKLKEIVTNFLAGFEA
UniProt Q9H1I8: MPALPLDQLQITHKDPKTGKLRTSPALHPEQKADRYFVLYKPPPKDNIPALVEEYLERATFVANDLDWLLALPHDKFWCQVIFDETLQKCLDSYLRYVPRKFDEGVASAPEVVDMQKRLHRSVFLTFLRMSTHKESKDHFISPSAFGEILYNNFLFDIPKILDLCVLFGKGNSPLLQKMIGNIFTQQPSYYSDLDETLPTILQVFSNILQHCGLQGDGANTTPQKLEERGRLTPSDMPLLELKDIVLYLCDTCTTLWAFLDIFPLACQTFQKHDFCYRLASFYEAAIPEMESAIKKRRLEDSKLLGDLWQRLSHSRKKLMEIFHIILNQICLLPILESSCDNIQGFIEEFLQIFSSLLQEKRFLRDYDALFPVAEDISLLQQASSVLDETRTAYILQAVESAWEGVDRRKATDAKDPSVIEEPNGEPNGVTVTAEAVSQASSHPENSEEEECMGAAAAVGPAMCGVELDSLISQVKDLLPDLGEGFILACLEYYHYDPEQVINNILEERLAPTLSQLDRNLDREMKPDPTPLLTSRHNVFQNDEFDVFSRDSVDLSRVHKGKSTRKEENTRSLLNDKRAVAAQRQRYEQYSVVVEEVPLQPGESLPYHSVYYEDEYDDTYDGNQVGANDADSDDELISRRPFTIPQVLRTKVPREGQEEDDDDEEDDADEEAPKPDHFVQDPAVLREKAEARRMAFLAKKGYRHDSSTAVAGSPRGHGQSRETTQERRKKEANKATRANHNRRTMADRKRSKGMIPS
UniProt Q8NHH9: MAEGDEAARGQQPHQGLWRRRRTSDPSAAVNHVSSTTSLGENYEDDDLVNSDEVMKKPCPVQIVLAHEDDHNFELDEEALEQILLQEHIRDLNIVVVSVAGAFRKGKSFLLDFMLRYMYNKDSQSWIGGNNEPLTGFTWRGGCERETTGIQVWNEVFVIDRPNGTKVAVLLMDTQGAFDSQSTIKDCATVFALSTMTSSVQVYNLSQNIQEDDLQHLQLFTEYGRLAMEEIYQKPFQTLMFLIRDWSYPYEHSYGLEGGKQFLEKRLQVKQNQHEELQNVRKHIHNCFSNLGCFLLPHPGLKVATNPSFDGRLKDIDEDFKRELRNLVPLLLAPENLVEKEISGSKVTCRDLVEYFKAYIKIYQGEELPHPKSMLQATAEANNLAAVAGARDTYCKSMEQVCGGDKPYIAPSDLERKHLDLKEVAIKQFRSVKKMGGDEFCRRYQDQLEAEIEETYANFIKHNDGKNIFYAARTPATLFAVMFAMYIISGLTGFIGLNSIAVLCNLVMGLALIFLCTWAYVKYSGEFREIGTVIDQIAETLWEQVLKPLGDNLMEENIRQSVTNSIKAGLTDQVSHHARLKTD
UniProt O95260: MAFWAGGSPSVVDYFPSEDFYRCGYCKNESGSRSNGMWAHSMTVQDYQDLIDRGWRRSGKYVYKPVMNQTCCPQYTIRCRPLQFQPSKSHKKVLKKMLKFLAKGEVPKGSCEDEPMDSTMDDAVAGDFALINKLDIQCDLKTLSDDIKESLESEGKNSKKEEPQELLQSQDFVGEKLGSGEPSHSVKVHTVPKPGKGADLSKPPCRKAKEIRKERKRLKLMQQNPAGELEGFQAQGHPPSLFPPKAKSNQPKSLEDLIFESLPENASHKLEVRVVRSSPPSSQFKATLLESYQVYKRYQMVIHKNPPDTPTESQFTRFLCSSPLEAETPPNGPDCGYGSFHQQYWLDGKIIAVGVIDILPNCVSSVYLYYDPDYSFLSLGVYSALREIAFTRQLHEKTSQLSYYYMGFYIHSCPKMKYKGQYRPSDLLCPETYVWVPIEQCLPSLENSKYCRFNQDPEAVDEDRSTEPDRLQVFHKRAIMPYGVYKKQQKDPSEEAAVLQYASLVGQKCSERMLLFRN
UniProt O43681: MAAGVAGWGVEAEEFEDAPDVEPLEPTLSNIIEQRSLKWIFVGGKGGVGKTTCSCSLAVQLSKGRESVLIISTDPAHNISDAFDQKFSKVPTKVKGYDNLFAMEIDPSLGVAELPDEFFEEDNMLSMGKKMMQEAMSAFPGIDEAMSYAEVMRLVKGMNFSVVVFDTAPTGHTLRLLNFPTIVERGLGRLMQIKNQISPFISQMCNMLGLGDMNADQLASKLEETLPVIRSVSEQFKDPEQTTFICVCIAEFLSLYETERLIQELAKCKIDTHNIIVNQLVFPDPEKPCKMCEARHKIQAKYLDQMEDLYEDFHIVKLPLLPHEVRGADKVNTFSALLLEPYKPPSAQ
UniProt Q8NBU5: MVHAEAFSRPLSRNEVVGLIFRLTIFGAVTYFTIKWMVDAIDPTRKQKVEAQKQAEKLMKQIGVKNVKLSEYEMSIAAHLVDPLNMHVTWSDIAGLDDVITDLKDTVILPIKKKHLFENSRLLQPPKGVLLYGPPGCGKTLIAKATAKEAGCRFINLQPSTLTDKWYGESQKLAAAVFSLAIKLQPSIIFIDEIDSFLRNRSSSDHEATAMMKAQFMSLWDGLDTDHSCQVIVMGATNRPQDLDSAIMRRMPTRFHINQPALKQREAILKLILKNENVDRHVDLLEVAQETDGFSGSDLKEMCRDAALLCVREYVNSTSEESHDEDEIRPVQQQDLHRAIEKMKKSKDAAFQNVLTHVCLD
UniProt P27449, whole entry, looked up: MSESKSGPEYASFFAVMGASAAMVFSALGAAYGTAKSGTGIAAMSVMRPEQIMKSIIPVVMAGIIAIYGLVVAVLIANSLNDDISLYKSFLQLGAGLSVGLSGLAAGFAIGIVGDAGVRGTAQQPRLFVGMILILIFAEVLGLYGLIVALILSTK
UniProt P35670: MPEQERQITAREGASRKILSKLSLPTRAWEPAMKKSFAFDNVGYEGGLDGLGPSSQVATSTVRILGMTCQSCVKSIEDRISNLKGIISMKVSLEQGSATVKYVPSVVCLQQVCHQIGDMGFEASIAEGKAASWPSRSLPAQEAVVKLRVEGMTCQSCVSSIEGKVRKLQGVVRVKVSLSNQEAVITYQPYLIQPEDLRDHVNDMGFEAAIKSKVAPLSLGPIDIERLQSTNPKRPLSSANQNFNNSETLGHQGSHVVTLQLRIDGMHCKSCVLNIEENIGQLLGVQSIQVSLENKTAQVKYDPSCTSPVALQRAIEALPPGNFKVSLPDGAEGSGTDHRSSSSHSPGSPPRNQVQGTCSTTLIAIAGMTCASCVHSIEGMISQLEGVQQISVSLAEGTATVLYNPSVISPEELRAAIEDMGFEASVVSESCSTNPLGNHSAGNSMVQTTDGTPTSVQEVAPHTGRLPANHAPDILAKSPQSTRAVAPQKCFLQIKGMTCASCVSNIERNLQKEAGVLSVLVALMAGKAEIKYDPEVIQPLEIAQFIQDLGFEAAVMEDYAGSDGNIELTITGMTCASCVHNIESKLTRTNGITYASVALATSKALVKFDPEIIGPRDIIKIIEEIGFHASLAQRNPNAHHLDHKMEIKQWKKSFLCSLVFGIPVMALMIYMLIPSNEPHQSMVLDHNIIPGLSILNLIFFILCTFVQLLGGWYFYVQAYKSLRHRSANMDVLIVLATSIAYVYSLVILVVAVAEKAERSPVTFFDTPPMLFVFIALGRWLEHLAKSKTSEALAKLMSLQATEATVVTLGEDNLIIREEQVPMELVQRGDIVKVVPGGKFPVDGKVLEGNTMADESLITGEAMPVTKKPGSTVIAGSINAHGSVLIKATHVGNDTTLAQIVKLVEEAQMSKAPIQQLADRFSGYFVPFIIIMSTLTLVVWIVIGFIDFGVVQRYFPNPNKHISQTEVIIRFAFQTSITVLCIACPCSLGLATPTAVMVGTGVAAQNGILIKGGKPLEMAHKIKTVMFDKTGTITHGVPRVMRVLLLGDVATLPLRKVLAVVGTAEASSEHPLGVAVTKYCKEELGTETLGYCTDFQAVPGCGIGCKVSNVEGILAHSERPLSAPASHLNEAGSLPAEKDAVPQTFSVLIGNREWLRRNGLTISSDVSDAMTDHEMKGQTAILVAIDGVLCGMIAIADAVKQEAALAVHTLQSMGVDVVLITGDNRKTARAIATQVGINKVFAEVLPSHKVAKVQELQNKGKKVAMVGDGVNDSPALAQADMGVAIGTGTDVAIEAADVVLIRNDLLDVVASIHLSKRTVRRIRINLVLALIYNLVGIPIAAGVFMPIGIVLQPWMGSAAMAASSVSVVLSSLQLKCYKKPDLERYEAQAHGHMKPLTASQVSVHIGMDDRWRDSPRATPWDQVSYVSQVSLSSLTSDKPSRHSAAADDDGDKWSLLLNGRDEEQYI

Compound: CCCS(=O)(=O)Nc1ccc(F)c(C(=O)c2c[nH]c3ncc(-c4ccc(Cl)cc4)cc23)c1F [vemurafenib]
Experiment: log2 fold change, soluble protein after heating vs DMSO (PISA); higher = thermal stabilisation; K562 lysate, 10 uM; active = over 0.2 and 3.5 SD of the protein, either way, in both replicates (recomputed)
Outline: (§1)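 Thermal stability, expressed as log-two fold change relative to solvent controls, is given from duplicates. Crude K562 extract in PBS pH 7.4 with 1 mM MgCl2, at 1 mg/mL protein, was treated with 10 μM compound for 30 min and heated in aliquots for 3 min across 48°C-58°C. After pooling, adjustment to 0.5% NP-40 at 4°C and centrifugation at 21,000xg for 90 min, supernatant protein was measured by TMTpro 16plex LC-MS/MS with channel sums equalised.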

log2 fold change, inactive:
AUH (UniProt Q13825) 0.083
ATRX (UniProt P46100) -0.135
ATXN2L (UniProt H3BUF6) 0.07
AXIN1 (UniProt O15169) -0.158
ATRAID isoform 3 (UniProt Q6UW56) 0.067
B4GALNT1 (UniProt Q00973) -0.036
B3GNT5 (UniProt Q9BYG0) 0.217
AVEN (UniProt Q9NQS1) 0.177
ATF3 (UniProt P18847) -0.032
ATP1B2 (UniProt P14415) -0.095

Compound: CCCS(=O)(=O)Nc1ccc(F)c(C(=O)c2c[nH]c3ncc(Cl)cc23)c1F
Experiment: as above
Outline: as §1

log2 fold change, inactive:
ATRN (UniProt O75882) 0.078
ATP5F1A (UniProt P25705) -0.012
ASCC2 (UniProt Q9H1I8) 0.069
ASL (UniProt P04424) -0.013
ATF7IP2 (UniProt Q5U623) -0.041
B3GLCT (UniProt Q6Y288) 0.008
ATL2 (UniProt Q8NHH9) 0.021
ASPM (UniProt Q8IZT6) 0.033
ATE1 isoform 2 (UniProt O95260) -0.006
ASNA1 (UniProt O43681) 0.005
ATAD1 (UniProt Q8NBU5) -0.072
ATP6V0C (UniProt P27449) 0.026
ATP7B (UniProt P35670) -0.019
ATXN2 (UniProt F8WB05) -0.024
AUH (UniProt Q13825) -0.009
ATXN2L (UniProt H3BUF6) 0.062
AXIN1 (UniProt O15169) 0.091
ATRAID isoform 3 (UniProt Q6UW56) 0.049
B4GALNT1 (UniProt Q00973) 0.004
B3GNT5 (UniProt Q9BYG0) 0.143
ATP1B2 (UniProt P14415) 0.035

Compound: CCN(CCCOc1ccc2c(Nc3cc(CC(=O)Nc4cccc(F)c4)[nH]n3)ncnc2c1)CCOP(=O)(O)O [barasertib]
Experiment: as above
Outline: as §1

log2 fold change, inactive:
ASB3 isoform 3 (UniProt Q9Y575) 0.186
ATRN (UniProt O75882) -0.04
ATP5F1A (UniProt P25705) -0.008
ASCC2 (UniProt Q9H1I8) 0.025
ATXN7L3B (UniProt Q96GX2) -0.054
ASL (UniProt P04424) 0.033
ATG10 (UniProt Q9H0Y0) 0.092
ATG14 (UniProt Q6ZNE5) -0.145
ATF7IP2 (UniProt Q5U623) 0.009
B3GLCT (UniProt Q6Y288) -0.023
ATL2 (UniProt Q8NHH9) -0.014
ATE1 isoform 2 (UniProt O95260) 0.069
ASNA1 (UniProt O43681) -0.009
AUNIP isoform 2 (UniProt Q9H7T9) 0.044
ATAD1 (UniProt Q8NBU5) -0.008
AURKB isoform 5 (UniProt Q96GD4) 0.738
ATP6V0C (UniProt P27449) -0.062
ATXN1L (UniProt P0C7T5) -0.096
ATP7B (UniProt P35670) 0.067
ATXN2L (UniProt Q8WWM7) -0.083
ATXN2 (UniProt F8WB05) 0.057
AUH (UniProt Q13825) 0.004
ATRX (UniProt P46100) 0.149
AXIN1 (UniProt O15169) 0.1
B3GNT5 (UniProt Q9BYG0) -0.098
AVEN (UniProt Q9NQS1) -0.091
ATP1B2 (UniProt P14415) -0.13

Compound: CC[C@@H]1C(=O)N(C)c2cnc(Nc3ccc(C(=O)NC4CCN(C)CC4)cc3OC)nc2N1C1CCCC1
Experiment: as above
Outline: as §1

log2 fold change, inactive:
ASB3 isoform 3 (UniProt Q9Y575) -0.176
ATRN (UniProt O75882) 0.205
ATP5F1A (UniProt P25705) 0.001
ASCC2 (UniProt Q9H1I8) -0.054
ATXN7L3B (UniProt Q96GX2) -0.149
ASL (UniProt P04424) 0.002
ATG10 (UniProt Q9H0Y0) 0.016
ATG14 (UniProt Q6ZNE5) 0.053
B3GLCT (UniProt Q6Y288) 0.036
ATL2 (UniProt Q8NHH9) -0.098
ASPM (UniProt Q8IZT6) -0.092
ATE1 isoform 2 (UniProt O95260) 0.019
ASNA1 (UniProt O43681) -0.086
AUNIP isoform 2 (UniProt Q9H7T9) -0.163
ATAD1 (UniProt Q8NBU5) 0.024
AURKB isoform 5 (UniProt Q96GD4) -0.003
ATP6V0C (UniProt P27449) 0.024
ATXN1L (UniProt P0C7T5) 0.089
ATP7B (UniProt P35670) -0.051
ATXN2L (UniProt Q8WWM7) -0.019
ATXN2 (UniProt F8WB05) -0.013
AUH (UniProt Q13825) 0.042
ATRX (UniProt P46100) -0.075
ATXN2L (UniProt H3BUF6) 0.124
AXIN1 (UniProt O15169) 0.043
ATRAID isoform 3 (UniProt Q6UW56) 0.079
B4GALNT1 (UniProt Q00973) 0.057
B3GNT5 (UniProt Q9BYG0) 0.232
AVEN (UniProt Q9NQS1) 0.117
ATF3 (UniProt P18847) 0.013
